Consider 27 substances from patent US5776950 (dated 1998).

This data set can be described thus: general procedure: solution-phase peptide synthesis; DCC or DIC with DMAP; cyclisation with 1-methyl-2-chloropyridinium iodide and tr.
Setting [1] is: late stage modification step, run 1.
Where [2] appears, read: late stage modification step, run 2.

“BOC-L-MeLeu-D-Lac-L-MeLeu-D-Lac-L-MeMeu-D-Lac-OBn” came in with a step yield (coupling step) of 68% yield.
Regarding “L-MeLeu-D-PhLac-L-MeLeu-D-Lac-L-MeLeu-D-PhLac-L-Tic-D-Lac-OH”, the step yield (late stage modification step) is 85%.
Still for that read-out and setting: next, “L-MeLeu-D-Lac-L-MeLeu-D-Lac-L-MeLeu-D-Lac-L-Pip-D-Lac-OBn”: 83% yield.
Where the note is “late stage modification step”, BOC-L-MeLeu-D-Lac-L-MeLeu-D-Lac-OH returned a step yield of 96%.
The same measure, in the same setting: next, “BOC-L-MeLeu-D-Lac-L-MeLeu-D-Lac-L-MeMeu-D-Lac-OH”: 95%.
Under “coupling step”, BOC-L-MeLeu-D-Lac-L-MeLeu-D-Lac-OBn displayed a step yield of 88% yield.
Same read-out and setting: next, “BOC-L-MeLeu-D-PhLac-L-MeLeu-D-Lac-L-MeMeu-D-PhLac-OBn”: 52% yield; “BOC-L-MeLeu-D-PhLac-L-MeLeu-D-Lac-L-MeLeu-D-PhLac-L-Pip-D-Lac-OBn”: 24% yield.
With “BOC-L-MeLeu-D-PhLac-L-MeLeu-D-Lac-L-MeMeu-D-PhLac-OH”, for the setting “late stage modification step”, the step yield was 81%.
The same measure, in the same setting: next, “L-MeLeu-D-PhLac-L-MeLeu-D-Lac-L-MeLeu-D-PhLac-L-Tic-D-Lac-OBn”: 90% yield.
Take BOC-L-Pro-D-Lac-L-MeLeu-D-PhLac-OBn: the step yield (coupling step) is 82% yield.
Take “L-Pro-D-Lac-L-MeLeu-D-PhLac-L-MeLeu-D-Lac-L-MeLeu-D-PhLac-OH”: the step yield under setting [1] was determined as 95% and the step yield under setting [2] is listed as 97%.
“L-MeLeu-D-PhLac-L-MeLeu-D-Lac-L-MeLeu-D-PhLac-L-Pip-D-Lac-OH” showed a step yield (late stage modification step) of 88%.
“BOC-L-Pro-D-Lac-L-MeLeu-D-PhLac-L-MeLeu-D-Lac-L-MeLeu-D-PhLac-OBn”: the step yield is 61% yield (coupling step, run 1) and 48% (coupling step, run 2).
Under “coupling step”, BOC-L-MeLeu-D-PhLac-L-MeLeu-D-Lac-OBn gave a step yield of 57%.
Still for that read-out and setting: with “BOC-L-MeLeu-D-Lac-L-MeLeu-D-Lac-L-MeLeu-D-Lac-L-Pip-D-Lac-OBn” the figure was 41% yield.
For the setting “late stage modification step”, L-MeLeu-D-Lac-L-MeLeu-D-PhLac-OBn had a step yield of 90% yield.
Still for that read-out and setting: with BOC-L-Pro-D-Lac-L-MeLeu-D-PhLac-OH the figure was 98%.
BOC-L-MeLeu-D-Lac-L-MeLeu-D-PhLac-OBn yielded a step yield (coupling step) of 58% yield.
In the case of “BOC-L-MeLeu-D-Lac-L-MeLeu-D-Lac-L-MeLeu-D-Lac-L-Tic-D-Lac-OBn”, the step yield (coupling step) worked out at 75% yield.
As to “L-MeLeu-D-PhLac-L-MeLeu-D-Lac-L-MeLeu-D-PhLac-L-Pip-D-Lac-OBn”, the step yield (late stage modification step) is recorded as 84% yield.
On the same count and under the same terms, next, BOC-L-MeLeu-D-PhLac-L-MeLeu-D-Lac-OH: 96%.
The substance “BOC-L-MeLeu-D-PhLac-L-MeLeu-D-Lac-L-MeLeu-D-PhLac-L-Tic-D-Lac-OBn” displayed a step yield (coupling step) of 24% yield.
Take “L-MeLeu-D-Lac-L-MeLeu-D-Lac-L-MeLeu-D-Lac-L-Tic-D-Lac-OBn”: for the setting “late stage modification step”, the step yield was 89% yield.
On the same count and under the same terms, with “L-MeLeu -D-Lac-L-MeLeu-D-Lac-L-MeLeu-D-Lac-L-Tic-D-Lac-OH” the figure was 80%.
The same measure, in the same setting: with “L-MeLeu-D-Lac-L-MeLeu-D-Lac-L-MeLeu-D-Lac-L-Pip-D-Lac-OH” the figure was 89%.
For the substance “L-Pro-D-Lac-L-MeLeu-D-PhLac-L-MeLeu-D-Lac-L-MeLeu-D-PhLac-OBn”, the step yield runs as follows: under setting [1], 90% yield; under setting [2], 94%.
